# ± gives the standard deviation of the averaged measurements. The list shows a part of the results.
# How the values were obtained:
# Experiment in all cases: NP40-soluble protein abundance relative to vehicle (solubility fold change) (ratio); higher = more soluble protein in presence of GTP
# HADHB = target: T1, HADHB (UniProt P55084)
# T1 sequence (whole entry): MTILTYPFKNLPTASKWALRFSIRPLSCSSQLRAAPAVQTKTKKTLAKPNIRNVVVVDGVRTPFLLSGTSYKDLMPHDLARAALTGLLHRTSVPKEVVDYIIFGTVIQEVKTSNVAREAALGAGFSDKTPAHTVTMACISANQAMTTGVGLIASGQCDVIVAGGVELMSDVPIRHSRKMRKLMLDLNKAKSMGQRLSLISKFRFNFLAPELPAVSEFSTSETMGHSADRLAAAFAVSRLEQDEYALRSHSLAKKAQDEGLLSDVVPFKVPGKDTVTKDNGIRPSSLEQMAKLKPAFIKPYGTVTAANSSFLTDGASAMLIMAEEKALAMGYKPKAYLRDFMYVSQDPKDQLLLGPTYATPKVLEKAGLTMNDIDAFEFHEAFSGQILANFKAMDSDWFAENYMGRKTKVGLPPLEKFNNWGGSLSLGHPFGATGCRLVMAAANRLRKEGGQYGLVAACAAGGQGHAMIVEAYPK
# Summary of the method: (§1)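 Crude Jurkat lysate, prepared by Dounce homogenisation, was exposed to eight concentrations from 0.1 to 10 mM for 10 min at room temperature and then 3 min at 37 °C. Solubilisation used 0.8% NP40 with benzonase for 60 min at 4 °C, followed by ultracentrifugation and TMT labelling of the supernatant for LC-MS/MS. After vsn normalisation of intensities, each value is the fold change against the detergent-processed vehicle within each replicate, across three independent experiments.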
# HNRNPF = target: T2, HNRNPF (UniProt P52597)
# T2 sequence (whole entry): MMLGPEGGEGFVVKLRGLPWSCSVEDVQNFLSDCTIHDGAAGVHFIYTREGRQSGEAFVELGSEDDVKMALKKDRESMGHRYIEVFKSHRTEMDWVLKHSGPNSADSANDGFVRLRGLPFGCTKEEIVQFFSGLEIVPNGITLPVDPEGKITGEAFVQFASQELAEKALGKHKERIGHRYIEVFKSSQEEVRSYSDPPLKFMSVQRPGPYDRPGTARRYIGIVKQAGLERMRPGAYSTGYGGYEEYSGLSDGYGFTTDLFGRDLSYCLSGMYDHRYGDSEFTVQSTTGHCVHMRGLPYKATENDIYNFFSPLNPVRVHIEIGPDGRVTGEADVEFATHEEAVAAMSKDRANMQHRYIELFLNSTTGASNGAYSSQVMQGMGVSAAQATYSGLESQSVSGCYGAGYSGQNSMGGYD
# Summary of the method: as §1
# SARNP = target: T3, SARNP (UniProt P82979)
# T3 sequence (whole entry): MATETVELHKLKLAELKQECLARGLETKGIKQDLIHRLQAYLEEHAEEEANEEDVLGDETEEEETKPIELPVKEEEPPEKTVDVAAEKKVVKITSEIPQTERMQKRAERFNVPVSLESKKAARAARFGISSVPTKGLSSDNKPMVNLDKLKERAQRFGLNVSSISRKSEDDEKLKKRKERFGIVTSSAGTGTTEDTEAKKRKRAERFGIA
# Summary of the method: as §1
# SLC12A2 = target: T4, SLC12A2 (UniProt P55011)
# T4 sequence (whole entry): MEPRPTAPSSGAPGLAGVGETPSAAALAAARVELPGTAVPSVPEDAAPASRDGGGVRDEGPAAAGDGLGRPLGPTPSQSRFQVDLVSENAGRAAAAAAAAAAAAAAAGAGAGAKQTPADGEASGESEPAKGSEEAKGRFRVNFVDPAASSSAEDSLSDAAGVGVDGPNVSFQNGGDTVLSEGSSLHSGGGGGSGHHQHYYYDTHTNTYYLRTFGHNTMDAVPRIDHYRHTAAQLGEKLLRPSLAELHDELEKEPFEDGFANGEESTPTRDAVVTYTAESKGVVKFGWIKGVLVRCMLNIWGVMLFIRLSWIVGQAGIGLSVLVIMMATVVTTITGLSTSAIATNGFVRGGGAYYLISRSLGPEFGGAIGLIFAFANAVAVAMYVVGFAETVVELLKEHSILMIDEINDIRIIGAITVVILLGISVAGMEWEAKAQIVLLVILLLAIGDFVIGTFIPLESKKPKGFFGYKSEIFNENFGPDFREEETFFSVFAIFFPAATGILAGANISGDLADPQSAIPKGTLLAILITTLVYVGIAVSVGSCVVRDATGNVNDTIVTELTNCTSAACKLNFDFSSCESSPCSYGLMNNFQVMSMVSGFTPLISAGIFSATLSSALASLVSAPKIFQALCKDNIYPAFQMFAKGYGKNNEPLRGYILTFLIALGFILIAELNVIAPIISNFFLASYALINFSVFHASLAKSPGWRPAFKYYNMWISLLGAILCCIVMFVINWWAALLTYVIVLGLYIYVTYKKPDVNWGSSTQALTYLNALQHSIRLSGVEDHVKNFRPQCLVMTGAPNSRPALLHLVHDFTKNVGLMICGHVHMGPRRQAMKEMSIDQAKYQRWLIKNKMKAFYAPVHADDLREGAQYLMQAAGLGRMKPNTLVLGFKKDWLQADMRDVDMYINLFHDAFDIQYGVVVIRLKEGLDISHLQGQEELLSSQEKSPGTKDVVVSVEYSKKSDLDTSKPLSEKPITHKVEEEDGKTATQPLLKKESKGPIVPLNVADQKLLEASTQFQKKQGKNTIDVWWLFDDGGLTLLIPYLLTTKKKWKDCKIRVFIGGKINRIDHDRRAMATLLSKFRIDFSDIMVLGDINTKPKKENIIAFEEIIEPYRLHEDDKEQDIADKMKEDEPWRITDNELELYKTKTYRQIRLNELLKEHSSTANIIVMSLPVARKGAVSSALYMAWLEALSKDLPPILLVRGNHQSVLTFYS
# Summary of the method: as §1
smiles,measurement,setting,value
Nc1nc2c(ncn2[C@@H]2O[C@H](COP(=O)(O)OP(=O)(O)OP(=O)(O)O)[C@@H](O)[C@H]2O)c(=O)[nH]1 [guanosine triphosphate],NP40-soluble protein abundance,HADHB; concentration: 0.1mM,0.996 ± 0.013
same,NP40-soluble protein abundance,HADHB; concentration: 0.5mM,1.02 ± 0.036
same,NP40-soluble protein abundance,HADHB; concentration: 1mM,0.972 ± 0.033
same,NP40-soluble protein abundance,HADHB; concentration: 2mM,0.983 ± 0.042
same,NP40-soluble protein abundance,HADHB; concentration: 4mM,1.01 ± 0.092
same,NP40-soluble protein abundance,HADHB; concentration: 6mM,0.99 ± 0.095
same,NP40-soluble protein abundance,HADHB; concentration: 8mM,0.991 ± 0.079
same,NP40-soluble protein abundance,HADHB; concentration: 10mM,0.988 ± 0.062
same,NP40-soluble protein abundance,HNRNPF; concentration: 0.1mM,0.985 ± 0.025
same,NP40-soluble protein abundance,HNRNPF; concentration: 0.5mM,0.977 ± 0.024
same,NP40-soluble protein abundance,HNRNPF; concentration: 1mM,0.939 ± 0.013
same,NP40-soluble protein abundance,HNRNPF; concentration: 2mM,0.894 ± 0.014
same,NP40-soluble protein abundance,HNRNPF; concentration: 4mM,0.878 ± 0.018
same,NP40-soluble protein abundance,HNRNPF; concentration: 6mM,0.904 ± 0.019
same,NP40-soluble protein abundance,HNRNPF; concentration: 8mM,0.876 ± 0.04
same,NP40-soluble protein abundance,HNRNPF; concentration: 10mM,0.838 ± 0.044
same,NP40-soluble protein abundance,SARNP; concentration: 0.1mM,0.796 ± 0.018
same,NP40-soluble protein abundance,SARNP; concentration: 0.5mM,0.782 ± 0.11
same,NP40-soluble protein abundance,SARNP; concentration: 1mM,0.867 ± 0.029
same,NP40-soluble protein abundance,SARNP; concentration: 2mM,0.892 ± 0.14
same,NP40-soluble protein abundance,SARNP; concentration: 4mM,0.926 ± 0.12
same,NP40-soluble protein abundance,SARNP; concentration: 6mM,0.994 ± 0.17
same,NP40-soluble protein abundance,SARNP; concentration: 8mM,0.992 ± 0.12
same,NP40-soluble protein abundance,SARNP; concentration: 10mM,1.03 ± 0.12
same,NP40-soluble protein abundance,SLC12A2; concentration: 0.1mM,0.98 ± 0.041
same,NP40-soluble protein abundance,SLC12A2; concentration: 0.5mM,1.01 ± 0.06
same,NP40-soluble protein abundance,SLC12A2; concentration: 1mM,0.981 ± 0.033
same,NP40-soluble protein abundance,SLC12A2; concentration: 2mM,0.956 ± 0.021

# Shown with tabs: part of the list above.
smiles	measurement	setting	value
Nc1nc2c(ncn2[C@@H]2O[C@H](COP(=O)(O)OP(=O)(O)OP(=O)(O)O)[C@@H](O)[C@H]2O)c(=O)[nH]1 [guanosine triphosphate]	NP40-soluble protein abundance	HADHB; concentration: 2mM	0.983 ± 0.042
same	NP40-soluble protein abundance	HADHB; concentration: 4mM	1.01 ± 0.092
